# Measurements reported in PubChem BioAssay AID504804 (Drosophila RNAi Screening Center, 2011)
# Screen: 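Fly genes whose loss lessens doxorubicin-driven cell death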 (primary screen)
# System: Drosophila Kc cells
# Knock-down reagent: long dsRNA against Drosophila genes, 0.5 µg dsRNA per well
# Duration: 96 h (48 h knock-down, then 48 h drug)
# Challenge: doxorubicin 5 µg/ml for 48 h, added 48 h after dsRNA
# Detection: 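Viability measured as cellular ATP by luminescence after 48 h knock-down then 48 h doxorubicin at 5 µg/ml; unnormalised plate counts for each replicate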
# Direction: raw ATP luminescence: higher = more viable cells, protection from doxorubicin
# Call rule: 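Active when both duplicate wells lie at least 2 SD above the plate mean and protection is confirmed by rescreening and independent dsRNAs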
# The screen tested about 19,000 reagents; below is a random part of those with a known target gene and a result. In the full data, 47 (0.25%) are marked active. 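Signals are raw, not normalised; exact z-scores behind calls not deposited; actives needed confirmation, so some wells reaching 2 SD are inactive.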 A plus sign joins genes that one reagent is predicted to hit.
Target gene,DRSC id,SD above plate mean,"raw ATP luminescence, replicate 1","raw ATP luminescence, replicate 2",call
CG15499 (retired record),DRSC15041,,50190,55780,inactive
Pits,DRSC19385,,3.43e5,2.98e5,inactive
Pits,DRSC19812,,3.41e5,2.98e5,inactive
CG7196 (retired record),DRSC01000,,3.18e5,2.93e5,inactive
CG7196 (retired record),DRSC03023,,36150,56583,inactive
wda,DRSC15579,,91930,70570,inactive
CG9517 (retired record),DRSC20192,,3.55e5,3.21e5,inactive
CG9517 (retired record),DRSC20193,,3.13e5,2.73e5,inactive
ND-B14.7,DRSC04544,,40110,39313,inactive
CG32652 (retired record),DRSC18942,,2.02e5,2.09e5,inactive
comr,DRSC04138,,66263,69707,inactive
CG30484,DRSC05457,,90077,1.08e5,inactive
CG31195,DRSC13440,,1.28e5,1.69e5,inactive
key,DRSC04285,,73443,43613,inactive
CG7849,DRSC04895,,33167,44237,inactive
CG31365,DRSC15610,,50807,37017,inactive
for,DRSC00195,,1.70e5,1.63e5,inactive
for,DRSC00818,,1.05e5,76650,inactive
Idgf1,DRSC03349,,91040,56203,inactive
hid,DRSC11316,,35203,35800,inactive
aus,DRSC13471,,1.52e5,1.81e5,inactive
aus,DRSC13473,,1.43e5,1.45e5,inactive
aus,DRSC15157,,45033,45353,inactive
Mst77F,DRSC11871,,77690,58230,inactive
Rbp4,DRSC16818,,97830,87850,inactive
tous,DRSC04464,,60400,62903,inactive
Rcd7,DRSC10100,,62957,66493,inactive
thw,DRSC12552,,56390,60157,inactive
Rpt3R,DRSC16501,,49760,55657,inactive
CG12009,DRSC08217,,43033,39463,inactive
fipi,DRSC00465,,42743,43407,inactive
Jhbp14,DRSC01988,,47320,57400,inactive
CG17633,DRSC02631,,40850,70073,inactive
Eps-15,DRSC04288,,73057,36673,inactive
ATPsynCF6L,DRSC08232,,90683,82463,inactive
CG18273,DRSC18150,,44750,47980,inactive
PPYR1,DRSC19612,,2.05e5,2.73e5,inactive
CG14834,DRSC10204,,63420,66777,inactive
CG31279,DRSC13158,,1.54e5,1.77e5,inactive
Ca-alpha1D,DRSC03284,,1.06e5,79500,inactive
Nup62,DRSC06970,,52297,60410,inactive
CG9123,DRSC20156,,2.57e5,3.03e5,inactive
Jhbp7,DRSC14408,,67020,85040,inactive
AdoR,DRSC16556,,34100,30450,inactive
Pglym87,DRSC15252,,53277,25677,inactive
Alp8,DRSC04353,,77600,42643,inactive
Frq1,DRSC19961,,3.53e5,3.45e5,inactive
UK114,DRSC01973,,68210,70843,inactive
CG11076,DRSC17197,,45680,68140,inactive
CG8138,DRSC16386,,88970,70440,inactive
CG14689,DRSC14912,,60483,59373,inactive
sas,DRSC12631,,68377,65747,inactive
CG4822,DRSC00669,,93287,76710,inactive
Sec63,DRSC11002,,74087,82993,inactive
Eig71Ed,DRSC11151,,43137,38987,inactive
CG32189,DRSC09511,,62383,72117,inactive
fwd,DRSC08580,,60407,67677,inactive
ringer,DRSC10455,,43950,46017,inactive
Skp2,DRSC12329,,51490,33557,inactive
CG33303,DRSC02848,,47993,75133,inactive
Ugt35C1,DRSC16080,,62777,64273,inactive
CG8006,DRSC10949,,43260,46783,inactive
CG32021 (retired record),DRSC17206,2 to 3 SD above plate mean,75710,92500,inactive
CG10339,DRSC04065,,46697,55343,inactive
sun,DRSC20140,,2.50e5,2.68e5,inactive
Prosbeta2R2,DRSC12193,,63657,58187,inactive
Pa1,DRSC19422,,3.27e5,2.61e5,inactive
Cpr11A,DRSC19861,,2.86e5,2.66e5,inactive
tplus3a + tplus3b,DRSC03687,,59327,54853,inactive
CG8314,DRSC07144,,54453,66127,inactive
Vha36-3,DRSC18615,,46080,42390,inactive
Sgf11,DRSC09987,,40917,37013,inactive
CG12818,DRSC14556,,68217,65770,inactive
bc10,DRSC11326,,71153,80683,inactive
CG14760,DRSC06495,,49027,70293,inactive
Blos2,DRSC10147,,68770,78137,inactive
Cht10,DRSC03766,,62313,61130,inactive
Cht10,DRSC03767,,58353,61900,inactive
Cht10,DRSC03768,,65950,70060,inactive
CG17110,DRSC15173,,79550,72840,inactive
HHEX,DRSC16186,,36470,36510,inactive
Act42A,DRSC04835,,52633,46280,inactive
Myd88,DRSC06815,,62507,71000,inactive
CG9733,DRSC16549,,36160,45880,inactive
Tsp2A,DRSC18584,,31910,45730,inactive
CG13751,DRSC06422,,40183,91387,inactive
Tom40,DRSC18796,,44440,40420,inactive
CG5664,DRSC11782,,1.84e5,2.21e5,inactive
ste24c + CG30461,DRSC05639,,2.04e5,1.63e5,inactive
CG5810,DRSC15880,,38160,34350,inactive
Ccdc58 + CG34116,DRSC10105,,72263,68460,inactive
Rpt5,DRSC16842,,39200,43223,inactive
RpL19,DRSC04649,,31420,27603,inactive
CG1024,DRSC12496,,64367,56767,inactive
moon,DRSC19497,,3.37e5,3.11e5,inactive
CG15572,DRSC18060,,45890,50230,inactive
CG34337,DRSC18435,,55620,56760,inactive
Ufsp2,DRSC10231,,32730,26580,inactive
mRpL45,DRSC16146,,53360,55510,inactive
hop,DRSC20340,,2.80e5,2.81e5,inactive
alpha-Est9,DRSC12621,,62737,44943,inactive
TotF,DRSC02305,,34673,21760,inactive
Jon65Aiii,DRSC10649,,38813,34373,inactive
CG34276,DRSC15811,,59060,72340,inactive
QC,DRSC09736,,39870,37760,inactive
CG15408,DRSC00423,,38160,37647,inactive
CG34107,DRSC14554,,65837,54587,inactive

Records above whose gene name begins with J or j (3):
Target gene,DRSC id,SD above plate mean,"raw ATP luminescence, replicate 1","raw ATP luminescence, replicate 2",call
Jhbp14,DRSC01988,,47320,57400,inactive
Jhbp7,DRSC14408,,67020,85040,inactive
Jon65Aiii,DRSC10649,,38813,34373,inactive
